Measurements taken from the supplement of paper PMC4683952.
This is one part of the list. Rule as the data show it: active = 2 or more and inactive = the rest. This data set is noisy: repeats of one test often differ as much as different tests do.

system: Lgr5 (MarsCy1-Lgr5-EGFP, U2OS); experiment: cell-surface Lgr5 expression (SCi1 fluorescence, background-subtracted) relative to WT DMSO (fold of DMSO control); higher = more Lgr5 at the plasma membrane; details: U2OS MarsCy1-Lgr5-EGFP stable; treatment time: overnight; library: ActiProbe-5K (TimTec); 25 µM

SMILES | cell-surface Lgr5 expression
O=C1NCCN1CCNS(=O)(=O)c1ccc(F)cc1 | inactive: 1.28
CS(=O)(=O)N1CCN(S(C)(=O)=O)C(=O)C1 | inactive: 1.06
O=C(Cn1cc(Cl)c([N+](=O)[O-])n1)N1CCNCC1 | inactive: 1.33
N#Cc1c(SCC(=O)Nc2nccs2)sc2c(O)nc(=O)[nH]c12 | inactive: 1.24
CS(=O)(=O)Oc1ccc(/C=N\c2cccc(C(F)(F)F)c2)cc1 | inactive: 1.12
Brc1ccc(-c2cs/c(=N\c3ccccc3)[nH]2)cc1 | inactive: 1.46
O=[N+]([O-])c1ccc2nc(Cl)c(Cl)nc2c1 | inactive: 1.31
Cc1ccnc2c1ccc1cccnc12 | inactive: 0.416
CCCCCCOC(=O)Nc1nnc(SCC)s1 | inactive: 1.17
COc1ccc(C2NCCc3nc[nH]c32)cc1CSC1=NC2CCCCC2N1.Cl (centres undefined) | inactive: 1.2
CCn1cc(C2CC(C(F)(F)F)n3nccc3N2)c(C)n1 (centres undefined) | inactive: 1.33
CSc1nc2ccc(/N=C\c3ccc(Sc4nnnn4-c4ccccc4)o3)cc2s1 | active: 2.01
CS(=O)(=O)N1CCc2cc(S(=O)(=O)Nc3ccc4c(c3)OCO4)ccc21 | inactive: 1.21
NNC(=O)c1csc2c1CCCC2 | inactive: 1.22
O=C(O)C1CSC(C2CCCCC2)N1 (centres undefined) | inactive: 1.26
CC(=O)Nc1sc2c(c1-c1nsc(=O)o1)CCCC2 | inactive: 1.39
CN(C)c1ccc(Br)c([N+](=O)[O-])c1 | inactive: 1.14
Nc1ccccc1-n1ccnc1 | inactive: 1.27
Nc1ncnc2c1nc(Cl)n2[C@@H]1O[C@H](CO)[C@H](O)[C@H]1O | inactive: 1.44
Brc1ccc2c(c1)CCCN2 | inactive: 0.874
Cc1sc(-n2cccc2)c(CO)c1C | inactive: 1.26
O=C(NC1CCCCC1NC(=O)C1CCCCC1)C1CCCCC1 (centres undefined) | inactive: 1.06
O=C(NC1CCCCCC1)C1CC1 | inactive: 0.941

SMILES | cell-surface Lgr5 expression
Cc1nn(CCc2nnc(C(C)n3ncc(Cl)c3C)o2)c(C)c1Cl (centres undefined) | inactive: 1.09
COC(=O)C1=C(C)NC2=C(C(=O)CC(C)(C)C2)C1c1cc(Br)c(C)s1 (centres undefined) | inactive: 1.36
Cc1cc(S(=O)(=O)NCc2ccco2)c(C)s1 | inactive: 0.963
CC12CN3CCN(CC(C3)C1(O)CN1CCOCC1)C2 (centres undefined) | inactive: 1.12
CNC(C)c1cccs1.Cl (centres undefined) | inactive: 1.18
O=C(NCCC1=CCCCC1)c1ccc(Br)o1 | inactive: 0.92
Fc1ccc(C2Nc3cccc4cccc(c34)N2)cc1 | inactive: 0.935
COC(=O)c1c(NC(C)=O)sc2c1C(C(=O)OC)CC2 (centres undefined) | inactive: 1.43
OC1CCCc2c1[nH]c1ccc(Br)cc21 (centres undefined) | inactive: 1.24
c1cc2c(s1)C1CCCCC1OC21C2CC3CC(C2)CC1C3 (centres undefined) | inactive: 1.06
O=C([O-])CCCC(=O)c1c[nH]c2ccccc12.[Na+] | inactive: 0.931
CC1=C(Cl)c2ccc(C)cc2S1(=O)=O | inactive: 1.37
Cc1nc2c(Br)cc(Br)cc2c(=O)o1 | inactive: 0.996
NCCNC(=O)Cn1cc([N+](=O)[O-])cn1 | inactive: 1.3
Cc1nnc(-c2c[nH]nc2N)[nH]1 | inactive: 1.01
O=S(=O)([O][K])N1C(O)C(O)N(S(=O)(=O)[O][K])C(O)C1O (centres undefined) | inactive: 1.14
Cc1oc(C(=O)O)cc1CSCc1cc(C(=O)O)c(C)o1 | inactive: 1.28
CC(C)Sc1nc2c(N)ncnc2[nH]1 | inactive: 1.04
O=C(CC1CCS(=O)(=O)C1)Nc1ccc[nH]c1=O (centres undefined) | inactive: 1.36
Nc1nc(C2CC2)c(Sc2sc(N)nc2C2CC2)s1 | inactive: 1.49
O=S(=O)(Nc1ccc(F)cc1F)c1ccc2c(c1)OCCO2 | inactive: 1.35
Cc1cc(C)c(Cc2c(C)c(/C=N\O)c(C)c(-c3c(C)cc(C)c(/C=N\O)c3C)c2C)c(C)c1/C=N\O | inactive: 1.09
Nc1nc2c(ncn2COCCO)c(=O)[nH]1 | inactive: 1.02

SMILES | cell-surface Lgr5 expression
Cc1ccnc(/N=N/c2cc(C)ccn2)c1 | inactive: 0.915
COc1cccc(-c2nnc3n2N=C(c2ccc(OC)c(OC)c2)CS3)c1 | inactive: 0.878
S=C(Nc1cccnc1)NC1CCCCC1 | inactive: 1.08
NS(=O)(=O)c1ccc(Cl)cc1 | inactive: 1.18
COc1nc(NCCN2CCOCC2)nc(OC)n1 | inactive: 1.26
O=C1CS/C(=N/c2ccn(C34CC5CC(CC(C5)C3)C4)n2)N1CC1CCCO1 (centres undefined) | inactive: 1.17
Clc1ccccc1CO/N=C1/CCCc2nonc21 | inactive: 0.79
C=CCSc1nn2c(=O)c3ccccc3nc2s1 | inactive: 1.22
Cc1cc(C)nc(SCCS(=O)(=O)c2ccc(C(C)(C)C)cc2)n1 | inactive: 0.996
c1ccc2c(N3CCN(c4ncnc5ccccc45)CC3)ncnc2c1 | inactive: 0.956
CN(C1CCS(=O)(=O)C1)S(=O)(=O)c1ccc(N2CCCC2=O)cc1 (centres undefined) | inactive: 1.32
OC12CC(C3COC1O3)n1c(nc3ccccc31)CO2 (centres undefined) | inactive: 1.54
O=C(NNC(=O)c1cccs1)c1ccc(Br)o1 | inactive: 0.973
CCOC(=O)c1sc2nc3n(c(=O)c2c1C)CCC3 | inactive: 1.24
Cc1nn2ncnc2c(O)c1Cl | inactive: 1.24
c1ccc2c(c1)CCCC2C1=NCCN1 (centres undefined) | inactive: 1.29
CC1=C(C(=O)OC2CCCCC2)C(c2ccc(C)o2)C2=C(CCCC2=O)N1 (centres undefined) | inactive: 1.26
CC(=O)Nc1nonc1NC1=CCCCC1 | inactive: 0.987
CCCCCSC1=C(C#N)C(C)(C)C(C#N)C(=O)N1 (centres undefined) | inactive: 1.15
C=CC[C@H]1CC=C[C@H](CC=C)N1C(C)=O | inactive: 1.15
O=S(=O)(Nc1cccnc1)c1cc(Cl)ccc1Cl | inactive: 1.29
CCS(=O)(=O)c1nc(-c2ccc(F)cc2)cc(C(F)(F)F)n1 | inactive: 0.382
N#CC1=CC(C#N)=C(C#N)N/C1=C(\N)C#N | inactive: 1.08

Filtered by structure: the entries above containing a CF3 group
SMILES | cell-surface Lgr5 expression
CS(=O)(=O)Oc1ccc(/C=N\c2cccc(C(F)(F)F)c2)cc1 | inactive: 1.12
CCn1cc(C2CC(C(F)(F)F)n3nccc3N2)c(C)n1 (centres undefined) | inactive: 1.33
CCS(=O)(=O)c1nc(-c2ccc(F)cc2)cc(C(F)(F)F)n1 | inactive: 0.382
